This passage reports binding results from PMC8282249.

By UniProt entry, the sequences of proteins in these tests, tags left out.
UniProt P15976: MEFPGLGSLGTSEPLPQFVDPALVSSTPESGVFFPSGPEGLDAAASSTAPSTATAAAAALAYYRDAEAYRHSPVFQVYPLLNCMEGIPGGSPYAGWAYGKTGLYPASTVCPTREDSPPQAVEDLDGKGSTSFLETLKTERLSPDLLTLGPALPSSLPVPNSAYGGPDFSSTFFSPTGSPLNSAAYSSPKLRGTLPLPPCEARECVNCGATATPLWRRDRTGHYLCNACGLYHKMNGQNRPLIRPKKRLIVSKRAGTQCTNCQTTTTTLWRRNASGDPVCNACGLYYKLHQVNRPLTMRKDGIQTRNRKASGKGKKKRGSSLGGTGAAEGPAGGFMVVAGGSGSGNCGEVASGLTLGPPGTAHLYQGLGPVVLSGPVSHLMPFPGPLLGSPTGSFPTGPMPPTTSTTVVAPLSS
UniProt Q8N6T7: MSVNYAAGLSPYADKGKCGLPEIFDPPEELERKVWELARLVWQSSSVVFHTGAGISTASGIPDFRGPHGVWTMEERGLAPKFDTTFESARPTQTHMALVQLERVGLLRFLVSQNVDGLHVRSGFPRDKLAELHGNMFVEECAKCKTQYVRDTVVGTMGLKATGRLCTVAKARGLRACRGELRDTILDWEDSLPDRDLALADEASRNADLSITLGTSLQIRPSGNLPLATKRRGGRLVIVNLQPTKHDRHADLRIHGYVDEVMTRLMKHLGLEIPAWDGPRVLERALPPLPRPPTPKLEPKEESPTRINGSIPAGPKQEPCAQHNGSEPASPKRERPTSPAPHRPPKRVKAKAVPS
UniProt Q09472: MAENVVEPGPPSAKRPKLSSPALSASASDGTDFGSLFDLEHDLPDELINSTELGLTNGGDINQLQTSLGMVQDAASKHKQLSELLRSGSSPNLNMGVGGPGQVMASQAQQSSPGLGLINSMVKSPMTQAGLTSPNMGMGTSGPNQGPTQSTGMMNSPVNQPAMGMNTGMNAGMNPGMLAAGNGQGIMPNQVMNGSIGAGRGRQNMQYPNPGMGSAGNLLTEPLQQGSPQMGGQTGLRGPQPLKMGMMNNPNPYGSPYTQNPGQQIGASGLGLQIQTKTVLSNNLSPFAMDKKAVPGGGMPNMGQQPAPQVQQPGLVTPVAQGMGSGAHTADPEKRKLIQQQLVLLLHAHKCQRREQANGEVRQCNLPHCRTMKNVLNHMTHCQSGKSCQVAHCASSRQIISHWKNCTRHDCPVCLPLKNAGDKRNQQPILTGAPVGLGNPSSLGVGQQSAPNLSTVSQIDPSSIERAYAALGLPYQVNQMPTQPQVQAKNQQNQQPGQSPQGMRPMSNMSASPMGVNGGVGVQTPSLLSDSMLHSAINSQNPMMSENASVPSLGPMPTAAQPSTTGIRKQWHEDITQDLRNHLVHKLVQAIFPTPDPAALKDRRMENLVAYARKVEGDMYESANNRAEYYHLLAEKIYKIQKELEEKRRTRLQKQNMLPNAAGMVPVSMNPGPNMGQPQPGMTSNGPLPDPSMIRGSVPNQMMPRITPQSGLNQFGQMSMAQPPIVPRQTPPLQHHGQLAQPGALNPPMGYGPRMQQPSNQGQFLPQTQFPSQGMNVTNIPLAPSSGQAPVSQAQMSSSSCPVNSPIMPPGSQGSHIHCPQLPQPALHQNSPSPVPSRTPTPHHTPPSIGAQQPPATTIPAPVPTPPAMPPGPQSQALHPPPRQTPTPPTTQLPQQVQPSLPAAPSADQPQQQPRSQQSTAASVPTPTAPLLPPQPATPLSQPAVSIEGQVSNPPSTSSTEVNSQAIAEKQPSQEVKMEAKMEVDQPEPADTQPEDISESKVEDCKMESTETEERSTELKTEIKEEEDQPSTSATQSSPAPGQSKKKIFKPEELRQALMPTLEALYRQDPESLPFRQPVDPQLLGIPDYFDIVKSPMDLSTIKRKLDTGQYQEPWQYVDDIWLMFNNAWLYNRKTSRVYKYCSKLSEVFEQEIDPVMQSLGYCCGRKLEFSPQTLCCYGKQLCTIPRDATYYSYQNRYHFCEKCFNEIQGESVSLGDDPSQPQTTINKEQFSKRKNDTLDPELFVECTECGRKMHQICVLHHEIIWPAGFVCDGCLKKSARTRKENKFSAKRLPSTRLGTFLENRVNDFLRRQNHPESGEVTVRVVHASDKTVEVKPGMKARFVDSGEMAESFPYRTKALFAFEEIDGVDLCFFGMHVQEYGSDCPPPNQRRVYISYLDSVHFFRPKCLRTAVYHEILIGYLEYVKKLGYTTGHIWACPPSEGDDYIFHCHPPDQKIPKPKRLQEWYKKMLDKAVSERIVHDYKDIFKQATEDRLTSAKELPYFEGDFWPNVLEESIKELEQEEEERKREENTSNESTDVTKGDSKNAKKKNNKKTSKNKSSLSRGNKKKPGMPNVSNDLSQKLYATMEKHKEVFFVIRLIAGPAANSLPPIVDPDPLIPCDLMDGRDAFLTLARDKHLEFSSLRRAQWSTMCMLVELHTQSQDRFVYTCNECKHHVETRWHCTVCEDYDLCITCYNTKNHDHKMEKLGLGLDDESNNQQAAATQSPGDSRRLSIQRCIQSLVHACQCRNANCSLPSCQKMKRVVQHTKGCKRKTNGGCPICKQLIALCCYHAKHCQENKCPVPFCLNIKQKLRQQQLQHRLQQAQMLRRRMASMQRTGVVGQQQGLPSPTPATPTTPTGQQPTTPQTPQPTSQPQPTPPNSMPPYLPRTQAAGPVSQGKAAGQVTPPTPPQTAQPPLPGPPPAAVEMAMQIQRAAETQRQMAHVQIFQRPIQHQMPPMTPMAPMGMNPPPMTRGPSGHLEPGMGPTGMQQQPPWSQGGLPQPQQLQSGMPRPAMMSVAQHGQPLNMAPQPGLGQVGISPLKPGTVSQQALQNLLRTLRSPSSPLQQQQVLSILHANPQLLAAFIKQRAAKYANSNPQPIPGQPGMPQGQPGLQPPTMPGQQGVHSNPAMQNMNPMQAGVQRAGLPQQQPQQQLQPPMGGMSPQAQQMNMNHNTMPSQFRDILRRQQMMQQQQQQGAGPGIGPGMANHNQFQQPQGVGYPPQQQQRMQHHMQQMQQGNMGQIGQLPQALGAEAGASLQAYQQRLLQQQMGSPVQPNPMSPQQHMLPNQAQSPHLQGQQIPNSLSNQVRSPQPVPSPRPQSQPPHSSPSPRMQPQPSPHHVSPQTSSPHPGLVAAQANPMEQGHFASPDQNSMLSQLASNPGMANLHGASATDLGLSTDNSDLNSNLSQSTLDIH

Results are given in words; binding and its absence hold for the method and conditions named. In cells and extracts the contact can be indirect. Some binding calls cover weakened binding; strength is not graded here.

The target in the experiment is GATA-1 in AML14.3D10 cells (UniProt P15976). Nature of the experiment: co-IP; AML14.3D10 human eosinophil cell line, differentiated with 0.4 mM butyric acid, cells of day 7.

Consider “Sirt6 in AML14.3D10 cells (from UniProt Q8N6T7 1-355) (enzyme)”, for which the binding result was “binds”.

As to “p300 in AML14.3D10 cells (from UniProt Q09472 1-2414) (enzyme)”, the binding result is on record as “binds”.
